From paper PMC11091889, “Silver Organometallics that are Highly Potent Thioredoxin and Glutathione Reductase Inhibitors: Exploring the Correlations of Solution Chemistry with the Strong Antibacterial Effects” (ACS Infectious Diseases, 2024) come the findings set out here.

In this test the test system is S. aureus MRSA (DSM 11822, ICB 25701). The test is described as follows: microbe, parasite or virus in culture. Type of test: cell-based, methicillin resistant S. aureus. To be noted: Staphylococcus aureus, 22 h. The method, then: The antibacterial effect of the silver NHC complexes and selected ligands was evaluated in two Gram-positive [Enterococcus faecium, methicillin resistant S. aureus, (MRSA)] and in four Gram-negative (Acinetobacter baumannii, Escherichia coli, Klebsiella pneumoniae, and Pseudomonas aeruginosa) pathogenic bacterial strains using broth microdilution assays. The resulting minimal inhibitory concentrations (MICs, Table 2) and EC50 (Table S6) were determined by a curve fitting procedure. Silver nitrate (AgNO3), SSD, and various antibiotics were used as references. […]
The following strains of ESKAPE panel were utilized and maintained at 37 °C in MHB (21 g/L Müller Hinton broth, pH 7.4) or TSY (30 g/L trypticase soy broth, 3 g/L yeast extract, pH 7.0–7.2) media: A. baumannii (DSM 30007, ATCC 19606), E. coli (DSM1116, ATCC 9637), K. pneumoniae (DSM 11678, ATCC33495), P. aeruginosa PA7 (DSM 24068) in MHB; E. faecium (DSM 20477, ATCC 19434), and S. aureus MRSA (DSM 11822, ICB 25701) in TSY. MIC values were determined following a standardized protocol in broth microdilution assays. […] After incubation of the plates for 22 h at 37 °C, the absorbance at 600 nm was measured using The Spark multimode microplate reader (Tecan Trading AG). The MIC values for the tested compounds were determined in three independent experiments and presented in μM with standard errors and also in μg/mL. […]

Like-named read-outs stand apart in the source and are kept apart here.

`CC(=O)NC[C@H]1CN(c2ccc(N3CCOCC3)c(F)c2)C(=O)O1` [linezolid, reference compound]: the MIC runs as follows: (read-out: MIC MRSA) 3.7 µM; (read-out: MIC MRSA (value in brackets)) 1 µg/mL.
